Results from PMC6004055.
Results are given in words; binding and its absence hold for the method and conditions named. In cells and extracts the contact can be indirect. Some entries that bind do so weakly or less than the wild type.

Chains of the proteins cited; added tags and fusions are not shown.
UniProt P48193: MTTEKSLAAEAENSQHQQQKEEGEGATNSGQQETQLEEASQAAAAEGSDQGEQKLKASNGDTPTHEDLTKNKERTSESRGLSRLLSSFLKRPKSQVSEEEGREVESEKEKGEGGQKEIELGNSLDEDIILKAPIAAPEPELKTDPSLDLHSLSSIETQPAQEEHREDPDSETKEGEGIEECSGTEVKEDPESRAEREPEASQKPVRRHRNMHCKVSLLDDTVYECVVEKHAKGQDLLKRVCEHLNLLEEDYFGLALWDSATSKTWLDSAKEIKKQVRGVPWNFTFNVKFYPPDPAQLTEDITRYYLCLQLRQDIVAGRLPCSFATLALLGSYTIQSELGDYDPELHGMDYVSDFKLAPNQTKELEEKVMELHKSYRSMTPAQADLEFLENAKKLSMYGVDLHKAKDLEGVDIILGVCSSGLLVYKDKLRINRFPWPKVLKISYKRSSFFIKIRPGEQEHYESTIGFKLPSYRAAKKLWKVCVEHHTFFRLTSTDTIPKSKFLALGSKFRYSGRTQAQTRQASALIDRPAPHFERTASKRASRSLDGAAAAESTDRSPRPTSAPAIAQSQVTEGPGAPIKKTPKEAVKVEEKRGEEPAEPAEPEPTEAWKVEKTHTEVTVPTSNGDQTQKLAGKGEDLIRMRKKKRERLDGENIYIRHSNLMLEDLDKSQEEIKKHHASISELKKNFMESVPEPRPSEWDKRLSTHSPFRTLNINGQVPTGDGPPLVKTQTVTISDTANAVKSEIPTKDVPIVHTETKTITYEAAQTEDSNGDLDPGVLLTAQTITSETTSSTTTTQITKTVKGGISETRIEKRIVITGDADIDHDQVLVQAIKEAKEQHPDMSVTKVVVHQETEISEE

Molecular target: protein 4.1 (mouse (endogenous in red blood cells)) (UniProt P48193)
Test: co-IP; hemoglobin-depleted mouse RBC lysate incubated 1 h at 37°C with anti-spectrin or anti-protein 4.1 antibody, then 1 h at 37°C with protein A/G magnetic beads; 20 mM Tris pH 7.5, 150 mM NaCl, 5 mM MgCl2, 1 mM DTT, 1% Triton X-100; IGG as negative control; Western blot against SART3

- binding: binds
B1: squamous cell carcinoma antigen recognized by T-cells 3 (SART3) (protein, UniProt Q9JLI8 1-962)
chain: MATTAASSASEPEVEPQAGPEAEGEEDEAKPAGVQRKVLSGAVAAEAAEAKGPGWDLQREGASGSDGDEEDAMASSAESSAGEDEWEYDEEEEKNQLEIERLEEQLSINGYDYNCHVELIRLLRLEGELSRVRAARQKMSELFPLTEELWLEWLHDEISMAMDGLDREHVYELFERAVKDYICPNIWLEYGQYSVGGIGQKGGLEKVRSVFERALSSVGLHMTKGLAIWEAYREFESAIVEAARLEKVHSLFRRQLAIPLYEMEATFAEYEEWSEEPMPESVLQSYQKALGQLEKYKPYEEALLQAEAPRLAEYQAYIDFEMKIGDPARIQLIFERALVENCLVPDLWIRYSQYLDRQLKVKDLVLSVHSRAVRNCPWTVALWSRYLLAMERHGLDHQTISATFENALSAGFIQATDYVEIWQVYLDYLRRRVDFRQDSSKELEELRSMFTRALEYLQQEVEERFSESGDPSCLIMQSWARVEARLCNNMQKARELWDSIMTRGNAKYANMWLEYYNLERAHGDTQHCRKALHRAVQCTSDYPEHVCEVLLTMERTEGTLEDWDLAIQKTETRLARVNEQRMKAAEKEAALVQQEEEKAEQRKKVRAEKKALKKKKKTRGADKRREDEDEENEWGEEEEEQPSKRRRTENSLASGEASAMKEETELSGKCLTIDVGPPSKQKEKAASLKRDMPKVAHDSSKDSVTVFVSNLPYSIEEPEVKLRPLFEVCGEVVQIRPIFSNRGDFRGYCYVEFGEEKSAQQALELDRKIVEGRPMFVSPCVDKSKNPDFKVFRYSTTLEKHKLFISGLPFSCTKEELEDICKAHGTVKDLRLVTNRAGKPKGLAYVEYENESQASQAVMKMDGMTIRENVIKVAISNPPQRKVPEKPEVRTAPGAPMLPRQMYGARGKGRTQLSLLPRALQRQGAAPQAENGPAPGPAVAPSVATEAPKMSNADFAKLLLRK
